In PMC13554098:

Target: double FLAG-tagged Rpb1, largest subunit of RNA polymerase II (Drosophila melanogaster (endogenous in embryos)) (UniProt P04052)
Experiment: affinity purification with mass spectrometry; FLAG-affinity eluate of Rpb1 from embryo nuclear lysate, trypsin digest, LC-MS/MS (Orbitrap Eclipse), Sequest HT search against the Drosophila proteome

Row | Binder | binding
1 | subunit 1 of TFIIF (protein, UniProt Q05913 1-577) MSSASKSTPSAASGSSTSAAAAAAASVASGSASSSANVQEFKIRVPKMPKKHHVMRFNATLNVDFAQWRNVKLERENNMKEFRGMEEDQPKFGAGSEYNRDQREEARRKKFGIIARKYRPEAQPWILKVGGKTGKKFKGIREGGVGENAAFYVFTHAPDGAIEAYPLTEWYNFQPIQRYKSLSAEEAEQEFGRRKKVMNYFSLMLRKRLRGDEEEEQDPEEAKLIKAATKKSKELKITDMDEWIDSEDESDSEDEEDKKKKEQEDSDDGKAKGKGKKGADKKKKKRDVDDEAFEESDDGDEEGREMDYDTSSSEDEPDPEAKVDKDMKGVAEEDALRKLLTSDEEEDDEKKSDESDKEDADGEKKKKDKGKDEVSKDKKKKKPTKDDKKGKSNGSGDSSTDFSSDSTDSEDDLSNGPPKKKVVVKDKDKEKEKEKESAASSKVIASSSNANKSRSATPTLSTDASKRKMNSLPSDLTASDTSNSPTSTPAKRPKNEISTSLPTSFSGGKVEDYGITEEAVRRYLKRKPLTATELLTKFKNKKTPVSSDRLVETMTKILKKINPVKHTIQGKMYLWIK | binds
2 | DNA topoisomerase 2 (enzyme, UniProt P15348 1-1447) MENGNKALSIEQMYQKKSQLEHILLRPDSYIGSVEFTKELMWVYDNSQNRMVQKEISFVPGLYKIFDEILVNAADNKQRDKSMNTIKIDIDPERNMVSVWNNGQGIPVTMHKEQKMYVPTMIFGHLLTSSNYNDDEKKVTGGRNGYGAKLCNIFSTSFTVETATREYKKSFKQTWGNNMGKASDVQIKDFNGTDYTRITFSPDLAKFKMDRLDEDIVALMSRRAYDVAASSKGVSVFLNGNKLGVRNFKDYIDLHIKNTDDDSGPPIKIVHEVANERWEVACCPSDRGFQQVSFVNSIATYKGGRHVDHVVDNLIKQLLEVLKKKNKGGINIKPFQVRNHLWVFVNCLIENPTFDSQTKENMTLQQKGFGSKCTLSEKFINNMSKSGIVESVLAWAKFKAQNDIAKTGGRKSSKIKGIPKLEDANEAGGKNSIKCTLILTEGDSAKSLAVSGLGVIGRDLYGVFPLRGKLLNVREANFKQLSENAEINNLCKIIGLQYKKKYLTEDDLKTLRYGKVMIMTDQDQDGSHIKGLLINFIHTNWPELLRLPFLEEFITPIVKATKKNEELSFYSLPEFEEWKNDTANHHTYNIKYYKGLGTSTSKEAKEYFQDMDRHRILFKYDGSVDDESIVMAFSKKHIESRKVWLTNHMDEVKRRKELGLPERYLYTKGTKSITYADFINLELVLFSNADNERSIPSLVDGLKPGQRKVMFTCFKRNDKREVKVAQLSGSVAEMSAYHHGEVSLQMTIVNLAQNFVGANNINLLEPRGQFGTRLSGGKDCASARYIFTIMSPLTRLIYHPLDDPLLDYQVDDGQKIEPLWYLPIIPMVLVNGAEGIGTGWSTKISNYNPREIMKNLRKMINGQEPSVMHPWYKNFLGRMEYVSDGRYIQTGNIQILSGNRLEISELPVGVWTQNYKENVLEPLSNGTEKVKGIISEYREYHTDTTVRFVISFAPGEFERIHAEEGGFYRVFKLTTTLSTNQMHAFDQNNCLRRFPTAIDILKEYYKLRREYYARRRDFLVGQLTAQADRLSDQARFILEKCEKKLVVENKQRKAMCDELLKRGYRPDPVKEWQRRIKMEDAEQADEEDEEEEEAAPSVSSKAKKEKEVDPEKAFKKLTDVKKFDYLLGMSMWMLTEEKKNELLKQRDTKLSELESLRKKTPEMLWLDDLDALESKLNEVEEKERAEEQGINLKTAKALKGQKSASAKGRKVKSMGGGAGAGDVFPDPDGEPVEFKITEEIIKKMAAAAKVAQAAKEPKKPKEPKEPKVKKEPKGKQIKAEPDASGDEVDEFDAMVEGGSKTSPKAKKAVVKKEPGEKKPRQKKENGGGLKQSKIDFSKAKAKKSDDDVEEVTPRAERPGRRQASKKIDYSSLFSDEEEDGGNVGSDDDGNASDDDSPKRPAKRGREDESSGGAKKKAPPKKRRAVIESDDDDIEIDEDDDDDSDFNC | binds
3 | snRNP A subunit of the U1 snRNP spliceosome (protein, UniProt P43332 1-216) MEMLPNQTIYINNLNEKIKKEELKKSLYAIFSQFGQILDIVALKTLKMRGQAFVIFKEIGSASNALRTMQGFPFYDKPMQIAYSKSDSDIVAKIKGTFKERPKKVKPPKPAPGTDEKKDKKKKPSSAENSNPNAQTEQPPNQILFLTNLPEETNEMMLSMLFNQFPGFKEVRLVPNRHDIAFVEFTTELQSNAAKEALQGFKITPTHAMKITFAKK | binds

Results are given in words; binding and its absence hold for the method and conditions named. Binding seen in cells or lysates may run through a third protein. A yes stands for co-enrichment or nearness to the bait. Other partners may have been found.
